The target of this assay is GST-QPCT fusion protein (UniProt Q16769). In words: pull-down; GST-QPCT (E. coli) as bait, GST pull-down kit (Thermo Fisher Scientific); MTDH and NF-κB (p65) of MCF-7 and MDA-MB-231 cells detected by blot; only the target purified.

By UniProt entry, the sequences of proteins in these tests, tags left out. Residues count along the entry.
UniProt Q16769, residues 29-361: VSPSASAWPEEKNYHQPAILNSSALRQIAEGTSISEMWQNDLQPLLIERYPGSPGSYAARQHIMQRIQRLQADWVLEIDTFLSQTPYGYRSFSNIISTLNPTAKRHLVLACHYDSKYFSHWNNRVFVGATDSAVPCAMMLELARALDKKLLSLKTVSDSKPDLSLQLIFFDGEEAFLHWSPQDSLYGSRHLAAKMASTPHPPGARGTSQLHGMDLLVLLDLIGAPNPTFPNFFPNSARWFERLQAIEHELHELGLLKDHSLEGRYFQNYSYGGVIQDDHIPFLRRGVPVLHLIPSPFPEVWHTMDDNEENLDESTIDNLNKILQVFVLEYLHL
UniProt Q04206: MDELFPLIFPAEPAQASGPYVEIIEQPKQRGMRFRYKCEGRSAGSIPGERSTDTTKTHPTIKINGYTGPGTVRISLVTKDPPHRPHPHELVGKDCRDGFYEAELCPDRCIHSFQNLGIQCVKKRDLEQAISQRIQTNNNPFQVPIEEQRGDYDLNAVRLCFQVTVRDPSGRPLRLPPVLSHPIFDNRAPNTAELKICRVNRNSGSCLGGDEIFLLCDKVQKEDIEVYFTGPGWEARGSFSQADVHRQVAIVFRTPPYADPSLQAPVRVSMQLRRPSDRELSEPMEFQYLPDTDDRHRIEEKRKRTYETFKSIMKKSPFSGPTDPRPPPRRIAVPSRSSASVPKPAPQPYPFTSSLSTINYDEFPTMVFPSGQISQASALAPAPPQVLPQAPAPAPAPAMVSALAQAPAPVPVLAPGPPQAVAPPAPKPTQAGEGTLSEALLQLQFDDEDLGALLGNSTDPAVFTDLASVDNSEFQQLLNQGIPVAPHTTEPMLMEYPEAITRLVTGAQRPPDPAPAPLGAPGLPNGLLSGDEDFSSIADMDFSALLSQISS

Results on two molecules are retold here after article PMC10903679.

These are yes or no findings as the source states them, for the method shown. Binding seen in cells or lysates may run through a third protein. Some results given as binding are weak or reduced against the parent protein; the word gives no strength.

NF-κB (p65) (from UniProt Q04206 1-551): the binding result is on record as “binds”.

B1: metadherin (MTDH) (protein, UniProt Q86UE4 1-582)
chain: MAARSWQDELAQQAEEGSARLREMLSVGLGFLRTELGLDLGLEPKRYPGWVILVGTGALGLLLLFLLGYGWAAACAGARKKRRSPPRKREEAAAVPAAAPDDLALLKNLRSEEQKKKNRKKLSEKPKPNGRTVEVAEGEAVRTPQSVTAKQPPEIDKKNEKSKKNKKKSKSDAKAVQNSSRHDGKEVDEGAWETKISHREKRQQRKRDKVLTDSGSLDSTIPGIENTITVTTEQLTTASFPVGSKKNKGDSHLNVQVSNFKSGKGDSTLQVSSGLNENLTVNGGGWNEKSVKLSSQISAGEEKWNSVSPASAGKRKTEPSAWSQDTGDANTNGKDWGRSWSDRSIFSGIGSTAEPVSQSTTSDYQWDVSRNQPYIDDEWSGLNGLSSADPNSDWNAPAEEWGNWVDEERASLLKSQEPIPDDQKVSDDDKEKGEGALPTGKSKKKKKKKKKQGEDNSTAQDTEELEKEIREDLPVNTSKTRPKQEKAFSLKTISTSDPAEVLVKNSQPIKTLPPATSTEPSVILSKSDSDKSSSQVPPILQETDKSKSNTKQNSVPPSQTKSETSWESPKQIKKKKKARRET
Turning to B1, the binding entry is recorded as “no binding”.
